Values quoted from earlier work as cited in patent US11446267B2, “Nanoparticle compositions, methods of fabrication, and use for drug delivery” (DIGNITY HEALTH, priority 2017, dated 2022).
For at least one compound, name, drawing or mass did not settle the structure.

Tested on: ALS-mouse model
Details: dietary supplementation; cited from earlier work

## CC1=C(/C=C/C(C)=C/C=C/C(C)=C/C(=O)O)C(C)(C)CCC1 [all-trans RA, 3,7-Dimethyl-9-(2,6,6-trimethyl-1-cyclohexen-1-yl)-2E,4E,6E,8E, -nonatetraenoic acid]
  ALS symptoms and lifespan: accelerate ALS symptoms and significantly reduce lifespan
